In patent US20040138826A1, “Experimental design and data analytical methods for detecting and characterizing interactions and interaction thresholds on fixed ratio rays of polychemical mixtures and subsets thereof” (priority 2002, published 2004):

Experiments:
rats = details: logit link
From the text: The endpoint of interest is neurotoxicity in rats as measured by a gait score dichotomized to indicate presence or absence of a gait abnormality (i.e., incoordination, loss of balance, etc.). The fixed-ratio ray under study was chosen based on the relative dietary exposure estimates of each chemical as projected by the U.S. EPA Dietary Exposure Evaluation Model (DEEM) and is given by (0.040:0.002:0.031:0.825:0.102) for ACE, DIA, CPF, MAL, DIM, respectively. […] (Note: Such a strategy can be extended for identifying the impact of the unidentified fraction in a complex mixture.)
The biological endpoint of interest is an indicator of neurotoxicity based on evidence of the presence or absence of a gait abnormality (Moser, 1995). In order to appropriately constrain the probability of a response to be between 0 and 1, a logit link function was used, i.e., g(μ)=log(μ/(1−μ)). It was assumed throughout that the variance changes as a binomial random variable such that Var(Y)=τμ(1−μ) (e.g., McCullagh and Nelder, 1989).
The resulting mixture experiment consisted of a vehicle control (n=14), ‘positive controls’ for ACE alone (6 and 30 mg/kg; n=6, 14, respectively), CPF alone (10, 20, 30 mg/kg; n=6, 8, 6, respectively), DIAZ alone (50 and 125 mg/kg; n=6, 14, respectively), MAL alone (350 mg/kg; n=14), DIM alone (10, 25, 50 mg/kg; n=6, 8, 6, respectively), and six total dose mixture concentrations (10, 55, 100, 200, 300 and 450 mg/kg; n=12 rats per dose group for a total of 72 rats exposed to a mixture of the chemicals) at a fixed mixing ratio ray of (0.040:0.002:0.031:0.825:0.102) for (ACE:DIA:CPF:MAL:DIM). Similarly, the design for a second fixed-ratio ray was based on a reduced number of the pesticides (omitting MAL) with the remaining pesticides at the same relative proportions as in the ‘full’ mixture study. The experiment consisted of a vehicle control (n=8), positive controls (n=8 per group) for ACE (30 mg/kg), CPF (20 mg/kg), DIA (125 mg/kg), and DIM (25 mg/kg), and six total dose mixture concentrations (1.75, 9.6, 17.5, 35, 52.5, and 78.8 mg/kg; n=12 rats per dose group) at a fixed mixing ratio ray of (0.229:0.011:0.177:0.583) for (ACE:DIA:CPF:DIM). Casey et al (2003a,b) describe the motor activity data in the mixture of these five pesticides.

healthy adult rats = tested on: healthy adult rats
From the text: To motivate the use of these fixed-ratio mixture ray designs consider a study which examines exposure to environmentally relevant pesticides. The OP pesticides chosen for study, based on usage patterns (i.e. pesticides used on same or similar crops) and market share (i.e. highest volume pesticides), were acephate, diazinon, chlorpyrifos, dimethoate, and malathion. Motor activity, a count of the number of passes made across a central area, was used to assess toxicity in healthy adult rats. A full five-pesticide fixed-ratio ray, given by (0.040:0.002:0.031:0.102:0.825) for (acephate:diazinon:chlorpyrifos:dimethoate:malathion), was chosen based on relative dietary exposure estimates of each chemical as projected by the U.S. EPA Dietary Exposure Evaluation Model (DEEM).
Single chemical data were collected approximately 18 months prior to the data along the full fixed-ration ray.
Fixed-ratio ray designs were chosen to study interactions among combinations of multiple pesticides. The pesticides chosen for these studies, based on usage patterns (i.e., pesticides used on the same or similar crops) and market share (i.e., highest volume pesticides), were acephate, diazinon, chlorpyrifos, dimethoate, and malathion. Motor activity, a count of the number of passes made across a central area, was chosen to assess the toxicity of these pesticides in healthy adult rats. The fixed-ratio ray under study was chosen based on the relative dietary exposure estimates of each chemical as projected by the U.S. EPA Dietary Exposure Evaluation Model (DEEM) and is given by (0.040:0.002:0.031:0.102:0.825) for acephate, diazinon, chlorpyrifos, dimethoate, and malathion respectively.
The five-pesticide study described in the introduction is used to illustrate the sample size and power methods developed in Section 3. Due to the high potential of aggregate exposure to OP pesticides, researchers were initially interested in testing the hypothesis of additivity, given in (5), along the full five-pesticide fixed-ratio ray, given by (0.040:0.002:0.031:0.102:0.825) for ([…]), that represents relative dietary exposure estimates. Single chemical data were collected and used to estimate an additivity model along the ray (analysis not shown). Since, the motor activity response is a count variable it was assumed that V(m)=m and the log link function (McCullagh and Nelder, 1989) was used to fit the generalized linear additivity model described in Section 2. […] Eighty-six animals were considered. Fourteen animals were evaluated in the control group. Twelve animals each were evaluated at 10, 55, 100, 200, 300, and 450 mg/kg. Summary statistics for the single chemical and mixture data are provided in the appendix.
The five-pesticide study described in the introduction is used to illustrate the design methodology developed in the following sections. Due to the high potential for aggregate exposure to OP pesticides, researchers were initially interested in testing the hypothesis of additivity, given in (4), along the full five-pesticide fixed-ratio ray, given by (0.040:0.002:0.031:0.102:0.825) for (acephate:diazinon:chlorpyrifos:dimethoate:malathion). Since motor activity response is a count variable, it was assumed that V(μ)=μ and the log link function (McCullagh and Nelder, 1989) was used to fit the generalized linear additivity model given in (1). […] Eighty-six animals were considered. Fourteen animals were evaluated in the control group. Twelve animals each were evaluated at 10, 55, 100, 200, 300, and 450 mg/kg.

[1] = additivity model (3), single chemical data, Example 3 Table 1
[2] = final SANR analysis, Example 3 Table 3
[3] = full SAR analysis, Example 3 Table 2
[4] = generalized linear model (3), log link, single chemical and full ray data, Examples 2 and 4 Table 1
[5] = threshold additivity model (2), SAR analysis, Example 1 Table 3

Structure (SMILES) | Estimate of slope parameter β (gait abnormality) (rats; [1]) | Estimate of slope parameter β (gait abnormality) (rats; [2]) | Estimate of slope parameter β (gait abnormality) (rats; [3]) | Estimate of slope parameter β (motor activity) (healthy adult rats; [4]) | Estimate of slope parameter β (motor activity) (healthy adult rats; [5])
CCOP(=S)(OCC)Oc1cc(C)nc(C(C)C)n1 [Diazinon, diazinon] | 0.0338 | 0.0276 | 0.0256 | −0.004 | −0.005
COP(=O)(NC(C)=O)SC (centres unmarked) [Acephate, acephate] | 0.1868 | 0.1615 | 0.1474 | −0.018 | −0.020
CNC(=O)CSP(=S)(OC)OC [Dimethoate, dimethoate] | 0.1711 | 0.1531 | 0.1335 | −0.0123 | −0.014
CCOP(=S)(OCC)Oc1nc(Cl)c(Cl)cc1Cl [Chlorpyrifos, chlorpyrifos] | 0.1605 | 0.1343 | 0.1250 | −0.025 | −0.026

Read-outs that look alike come from different tables or passages of the source.
